Measured values published in patent US20200277374A1 (Alector, published 2020).
Where a chain is given by its changes, count along the chain named. These are yes or no findings as the source states them, for the method shown. Some entries that bind do so weakly or less than the wild type.

Chains of the proteins cited; added tags and fusions are not shown. Lines headed by an entry give the natural chain unless they say otherwise; changes in a name come on top.
UniProt Q9Y286: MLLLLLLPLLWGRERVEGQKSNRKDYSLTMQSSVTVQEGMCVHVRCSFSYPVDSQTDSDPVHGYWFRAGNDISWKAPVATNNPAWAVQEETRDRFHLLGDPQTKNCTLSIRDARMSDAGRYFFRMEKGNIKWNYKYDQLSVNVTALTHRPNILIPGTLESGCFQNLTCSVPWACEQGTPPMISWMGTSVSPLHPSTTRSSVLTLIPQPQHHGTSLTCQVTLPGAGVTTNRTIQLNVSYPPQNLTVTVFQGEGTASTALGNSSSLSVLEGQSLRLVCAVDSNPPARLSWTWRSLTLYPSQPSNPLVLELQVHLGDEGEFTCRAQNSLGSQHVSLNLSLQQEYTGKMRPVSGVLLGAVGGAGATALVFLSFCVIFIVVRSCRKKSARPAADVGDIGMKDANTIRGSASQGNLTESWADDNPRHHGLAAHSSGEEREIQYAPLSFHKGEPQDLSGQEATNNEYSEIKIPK

B1: anti-Siglec-7 antibody 10B5 (antibody, V domains shown)
VH: QVHLQQSGPELVKPGASVKISCKASGYAFTNCWMNWVRQRPGKGLDWIGRIFPGNGHTNYSGKFKDKATLTEDKSSSTAYMQLSSLTSEDSAVYFCARDYSDYYFDYWGQGTTLTVSS
VL: DVQMTQTTSSLSASLGDRVTISCRASQDINTYLNWYQQKPDGTVKLLIYYTSRLHSGVPSRFSGSGSGTDYSLTISNLEQEDIATYFCQQGNTLPWTFGGGTKLEIK
notes: that light chain holds several Z and differs in its CDRs from S7-10B5.1 / 10B5L1; also called S7-10B5; mAb S7-10B5
B2: anti-Siglec-7 antibody 1A12 (antibody, V domains shown)
VH: QVQLQQSGSELRSPGSSVKLSCKDFDSEVFPITYMNWVRQKPGHGFEWIGDILPSIGRTMYGEKFEDKATLDADTVSNTAYLELNSLTSEDSAIYYCARSEGYLLAYWGQGTLVTVSA
VL: DVZMTQTPLSLPVSLGDQASISCRSSQSLVHSTGNTYLHWYLQKPGQSPKLLIYKVSNRFSGVPDRFSGSGAGTDFTLKISRVEAEDLGVYFCSQNTHVPYTFGGGTKLEIK
notes: also called 1Al2
B3: anti-Siglec-7 antibody 2G1 (antibody, V domains shown)
VH: EVKLVESGGTLVKPGGSLKISCAASGFTFSNYDMSWVRQNPEKRLEWVATISSGGDYTYYPDIFKGRFTISRDDAKNALYLQMSSLRSEDTALYYCARHGYGNYDWYFDVWGAGATVTVSS
VL: VLTQSPAIMSASPGEKVTMTCSANSSFIYMYWYQQKPGSSPRLLIFDTSNLASGVPIRFSGSGSGTSYSLTISRMEAEDTATYYCQQWSSSPLTFGGGTKLELK
notes: Variable domains assembled from FR and CDR entries; the printed VL FR1 looks shortened at its N-terminus; also called 2G11 (misprint in text)
B4: anti-Siglec-7 antibody 2G4 (antibody, V domains shown)
VH: B2 VH
VL: DIQMTQSLSYLSVSLGGRVTITCKASDHINNWLAWYQQKPGNAPRLLISGATSLETGFPSRFSGSGSGKDYTLSITSLQTEDVATYYCHQYWNTPYTFGGGTRLEIK
notes: Variable domains assembled from FR and CDR entries
B5: anti-Siglec-7 antibody 3E11 (antibody, V domains shown)
VH: QVQLQQSGAELARPGASVKLSCKASGYIFTDYGITWVKQRTGQGLEWIGEISPRSGETYFNENYRVKATLTADKSSSTAYMQLFSLTSEDSAVYFCAREGNPFTYWGHGTLVTVSA
VL: B2 VL with S61C
notes: as for B4
B6: anti-Siglec-7 antibody 4A1 (antibody, V domains shown)
VH: B2 VH
VL: B2 VL with Z3V, T36I, S61Z, A72S
notes: as for B4
B7: anti-Siglec-7 antibody 4E3 (antibody, V domains shown)
VH: B3 VH with K3Q, T10A, A24V, T28I, D56G, I63S, F64V, D74N, A97T
VL: QIVLTQSPAILSASPGEKVTMTCSANSSFTYMYWYQQKPGSSPRLLIFDTSNLASGVPIRFSGSGSGTSYSLTISRMEAEDTATYYCQQWSSSPLTFGAGTKLELK
notes: VL FR1 there holds a Z); also called S7-4E3; mAb S7-4E3
B8: anti-Siglec-7 antibody 7E11 (antibody, V domains shown)
VH: QVQLKQSGPVLVAPSQSLSITCTVSGFSLSNYGVHWVRQFPGKGLEWLGVIWAGGITNYNSVLMSRLSISKDNSKSQVFLKMNSLQTDDTAMYYCAKQGGTSFSYWGQGTLVTVSA
VL: DIQMTQSPASQSASLGESVTITCLASQTIGTWLAWYQQKPGKSPQLLIYAATSLADGVPSRFSGSGSGTKFSFKISSLQAEDFVSYYCQQLYSTPYTFGGGTKLEIK
notes: as for B4
B9: anti-Siglec-7 antibody 7F12 (antibody, V domains shown)
VH: B2 VH
VL: B2 VL with Z3L
notes: as for B4

Tests used:
[1] = target: human Siglec-7 expressed on human cells (primary monocytes, dendritic cells, macrophages, NK cells, microglia, U937 cells, human cells of humanized mice) (human) (UniProt Q9Y286); experiment: FACS on human primary cells
[2] = target: human Siglec-7 expressed on human cells (primary monocytes, dendritic cells, macrophages, NK cells, microglia, U937 cells, human cells of humanized mice) (human) (UniProt Q9Y286); experiment: FACS titration on primary human dendritic cells
[3] = target: human Siglec-7 expressed on human cells (primary monocytes, dendritic cells, macrophages, NK cells, microglia, U937 cells, human cells of humanized mice) (human) (UniProt Q9Y286); experiment: FACS on human primary dendritic cells, APC detection [Cont.]
[4] = target: human Siglec-7 expressed on human cells (primary monocytes, dendritic cells, macrophages, NK cells, microglia, U937 cells, human cells of humanized mice) (human) (UniProt Q9Y286); experiment: 12-point titration, FACS on primary human dendritic cells, 4 C, goat anti-mouse APC
[5] = target: Histidine-tagged human Siglec-7 (NovoProtein) (human) (UniProt Q9Y286); experiment: SPR (Biacore), antibody captured on anti-mouse IgG, Siglec-7-his as analyte [Cont.]
[6] = target: Histidine-tagged human Siglec-7 (NovoProtein) (human) (UniProt Q9Y286); experiment: SPR (Biacore), antibody captured on anti-mouse IgG, Siglec-7-his as analyte

Binder | binding [5] | binding [6] | other results
B1 | binds |  | binding [1]: binds; binding [2]: binds; binding [3]: binds; binding [4]: binds
B2 |  | binds | 
B3 |  | binds | 
B4 |  | binds | 
B5 |  | binds | 
B6 |  | binds | 
B7 | binds |  | 
B8 | binds |  | 
B9 | binds |  | 
